# Results published in PubChem BioAssay AID1347075 (National Center for Advancing Translational Sciences (NCATS), 2019).
# Among all 400,000 compounds or so, about 5,500 (1.4%) were called active. This list was built around the results that the source calls inconclusive (neither active nor inactive); the mix of calls is not that of the screen. The call rests on the fitted dose curve; in most records, active means well fitted cell-killing curve with a large enough effect; inconclusive means small, poorly fitted or top-dose-only effect, or effect the other way; inactive means flat fitted curve, though single readings scatter. Potencies of inconclusive entries are doubtful fits and often do not repeat.
# Experiment: qHTS assay for MDR1-selective chemotherapeutics: Primary screen using the parental adenocarcinoma cell KB-3-1; further: nearly all actives have a fitted effect of over 60% in size
# Conditions: KB-3-1 viability, CellTiter-Glo ATP luminescence, 72 h; activity change, negative = cytotoxic: at 46.1 µM (top of the series)
# Procedure, shortened: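 Using CellTiter-Glo luminescence, growth of non-resistant KB-3-1 adenocarcinoma cells is assessed 72 h after pin-tool compound addition at 37 °C. Normalized responses across the concentration series yield fitted curves.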
# On the % scale 0 is the no-effect control and ±100 the full control effect; potency means the concentration at half of the fitted maximal effect.
Structure (SMILES),Potency,"activity change, negative = cytotoxic"
CCCn1nnc(NC(=O)c2ccc(-c3ccccc3)cc2)n1,"inconclusive: 32.6 µM [rising, single point]",
Cc1ccc(S(=O)(=O)NCc2ccccc2)cc1,"inconclusive: 25.9 µM [rising, single point]",
O=C(Nc1ncnc2c1C(c1ccccc1)c1c(ccc3ccccc13)O2)c1ccccc1 (stereo unspecified),active: 13 µM,
COc1ccc(OC)c(NC(=O)C2COc3ccccc3O2)c1 (stereo unspecified),"inconclusive: 16.4 µM [cytotoxic, single point]",
Cc1ccc(-c2nc3ccccc3s2)cc1NC(=S)NC(=O)/C=C/c1ccco1,"inconclusive: 29.1 µM [cytotoxic, single point]",
COc1ccc2c(c1)c1c(c(=O)n(Cc3ccccc3)c(=O)n1CC(=O)Nc1ccccc1F)n2C,"inconclusive: 0.0366 µM [rising, full curve]",
O=C(NC(=S)Nc1ccc(Cc2ccncc2)cc1)c1ccccc1,"inconclusive: 29.1 µM [cytotoxic, single point]",
O=C(NCC1CCCO1)c1csc2c1CCCCC2 (stereo unspecified),,inactive: 3.85%
CCCCNC(=O)c1nc(C2CCN(S(=O)(=O)c3ccc(S(C)(=O)=O)cc3)CC2)oc1-c1ccccc1,"inconclusive: 29.1 µM [cytotoxic, single point]",
O=C(O)c1ccccc1NS(=O)(=O)c1ccc(NNC(=S)Nc2ccc(OC(F)F)cc2)c([N+](=O)[O-])c1,"inconclusive: 18.4 µM [cytotoxic, single point]",
C=CCn1c(COc2ccccc2F)nnc1SCC(=O)Nc1cc2oc3ccccc3c2cc1OC,"inconclusive: 29.1 µM [cytotoxic, single point]",
Cc1cccc(-n2nc(C)c3c2NC2=C(C(=O)CCC2)C3c2ccccn2)c1 (stereo unspecified),,inactive: 15.5%
CCOC(=O)C1C(C)C(C(C)(C)C)N(S(=O)(=O)c2ccc(C)cc2)C1c1ccccc1 (stereo unspecified),active: 23.1 µM,
COc1ccc(C(=O)C[n+]2ccc(N)c(C)c2C)cc1,"inconclusive: 18.4 µM [cytotoxic, single point]",
Oc1c(Cl)cc(Cl)c2cccnc12,"inconclusive: 29.1 µM [cytotoxic, single point]",
CSc1nc(NS(=O)(=O)c2cc(Br)ccc2Br)cc(=O)[nH]1,"inconclusive: 18.4 µM [rising, single point]",
CCOC(=O)c1c(NC(=O)COc2ccccc2)sc2c1CC(C)(C)NC2(C)C,"inconclusive: 29.1 µM [cytotoxic, single point]",
CC(C)Oc1ccc(CNC(=O)CN2C(=O)c3cccnc3Oc3ccc(Cl)cc32)cc1,"inconclusive: 29.1 µM [cytotoxic, single point]",
CCS(=O)(=O)N1CCc2cc(C(=O)NC(C)c3ccccc3)ccc21 (stereo unspecified),,inactive: -3.28%
CCOC(=O)N1CCC(N(C(=O)Nc2ccc(Cl)c(Cl)c2)C(C)CC)CC1 (stereo unspecified),"inconclusive: 29.1 µM [cytotoxic, single point]",
CCc1ccc(NC(=O)CN2CCCN(S(=O)(=O)c3ccc(F)cc3)CC2)cc1,"inconclusive: 13 µM [cytotoxic, partial curve, poor fit]",
CC(C)(C)OC(=O)C(Cc1ccc(OC(C)(C)C)cc1)NC(=O)CNC(=O)OCc1ccccc1 (stereo unspecified),"inconclusive: 29.1 µM [cytotoxic, single point]",

Structure (SMILES),Potency,"activity change, negative = cytotoxic"
CC1(C)CC[C@]2(CO)CC[C@]3(C)C(=CCC4[C@@]5(C)CC[C@H](O)[C@@](C)(CO)C5CC[C@]43C)[C@@H]2C1 (stereo partly specified),,inactive: -12.6%
O=C(Nc1ccc(S(=O)(=O)N2CCCC2)cc1)c1ccc(OCC2CCCO2)cc1 (stereo unspecified),active: 20.6 µM,
COc1ccc(NC(=O)CCc2ccccc2)cc1NC(=O)c1ccco1,,inactive: -10.8%
O=C(O)c1ccc(Cl)c(NCc2cccs2)c1,"inconclusive: 32.6 µM [cytotoxic, single point]",
COc1cc(C(=O)NCCC2=CCCCC2)ccc1OC1CCN(C(C)=O)CC1,"inconclusive: 0.0046 µM [rising, full curve]",
Cc1ccc(-c2cc3onc(-c4ccccc4)c3c(=O)n2C)cc1,"inconclusive: 29.1 µM [cytotoxic, single point]",
O=C1c2ccccc2-c2onc3ccc(Oc4ccccc4)c1c23,"inconclusive: 29.1 µM [cytotoxic, single point]",
COc1cccc2cc(C(=O)NCCc3ccccc3)oc12,,inactive: 25.1%
NC(=O)C1CCN(c2ccc(S(=O)(=O)N3CCC(Cc4ccccc4)CC3)cn2)CC1,"inconclusive: 25.9 µM [cytotoxic, single point]",
COc1ccc(CCCNC(=O)C2(C)Cc3c(-c4cccc(C(N)=O)c4)ccnc3O2)cc1 (stereo unspecified),"inconclusive: 25.9 µM [cytotoxic, single point]",
Cn1c2c(c(=O)n(C)c1=O)C(c1ccccc1C(F)(F)F)CC(=O)N2 (stereo unspecified),,inactive: -5.58%
COc1ccc(N2C(=S)NC3N2C(=S)NC3(C)c2ccccc2)cc1 (stereo unspecified),"inconclusive: 16.4 µM [cytotoxic, single point]",
CN1CCN(C(c2ccc(Br)cc2)c2cc(Cl)c3cccnc3c2O)CC1 (stereo unspecified),"inconclusive: 29.1 µM [cytotoxic, single point]",
O=C1C=C(c2ccc3c(c2)oc2ccccc23)C[C@@H](c2ccc(Cl)cc2)C1,,inactive: 0%
CC(C)(CC(=O)NCc1ccc(Cl)cc1Cl)CC1=NS(=O)(=O)c2ccccc2N1,"inconclusive: 20.6 µM [cytotoxic, single point]",
O=C(Nc1ccccn1)c1ccc(Cl)c(S(=O)(=O)N2CCc3ccccc32)c1,"inconclusive: 23.1 µM [cytotoxic, partial curve, poor fit]",
Cc1nnc(N/N=C/c2ccccn2)[nH]c1=O,"inconclusive: 14.6 µM [cytotoxic, single point]",
CC1CCN(C(=O)COC(=O)c2ccccc2NCCO)CC1,,inactive: 5.46%
COc1cc(NC(=O)COc2cccc(OC)c2)cc(OC)c1,,inactive: -7.61%
Cc1c(CCOC(=O)C23CC4CC(CC(C)(C4)C2)C3)sc[n+]1CC(=O)c1ccccc1,"inconclusive: 29.1 µM [cytotoxic, single point]",
COc1ccc(C(C[N+](=O)[O-])C2(c3ccc(OC)c(OC)c3)C(=O)c3ccccc3C2=O)cc1 (stereo unspecified),"inconclusive: 29.1 µM [cytotoxic, single point]",
CN1CCN(C2=C(Cl)C(=O)c3ccccc3C2=O)CC1,"inconclusive: 5.8 µM [cytotoxic, full curve, poor fit]",

Structure (SMILES),Potency,"activity change, negative = cytotoxic"
Cc1cccc(/C=C/C(=O)c2cc(Br)ccc(=O)c2O)c1,"inconclusive: 29.1 µM [cytotoxic, single point]",
COc1ccc(Cl)cc1C(=O)NNC(=O)c1nn(C)c(=O)c2ccccc12,"inconclusive: 18.4 µM [cytotoxic, partial curve, poor fit]",
CCc1ccc2nc(N(CCCN(C)C)C(=O)c3ccc4c(c3)OCCO4)sc2c1,"inconclusive: 29.1 µM [cytotoxic, single point]",
COc1cc(C(=O)NCCOc2ccc(C)c(C)c2)cc(OC)c1OC,"inconclusive: 0.259 µM [cytotoxic, full curve]",
Clc1ccc(-c2cn(-c3nc4ccccc4s3)nn2)cc1,,inactive: -9.82%
CN1C(=O)Cc2cc(S(=O)(=O)CCC(=O)Nc3ccc(Cl)cc3)ccc21,,inactive: -0.0839%
COc1ccccc1C(=O)NCC(=O)N/N=C/c1ccc2c(c1)OCO2,"inconclusive: 29.1 µM [cytotoxic, single point]",
Cc1noc(C)c1Cn1c(C)c(C(=O)NCc2ccc3c(c2)OCCO3)sc1=O,"inconclusive: 25.9 µM [rising, partial curve, poor fit]",
CC1(C)CC2CC(C)(CN2C(=O)COC(=O)c2cc(Cl)cc(Cl)c2N)C1 (stereo unspecified),"inconclusive: 5.17 µM [cytotoxic, partial curve, poor fit]",
CC(C)Cc1cc(CN2CCC(CO)(Cc3cccc(C(F)(F)F)c3)CC2)[nH]n1,"inconclusive: 32.6 µM [cytotoxic, single point]",
Cc1ccc(-c2nc(CSc3nc4ccccc4c(=O)n3CCO)cs2)cc1,,inactive: -29.3%
O=C(Nc1ccc2ccccc2c1)Nc1nnc(C2CCCCC2)s1,,inactive: 0%
CCC(=O)c1ccccc1OCCCN1CCC(Cc2ccccc2)CC1,"inconclusive: 25.9 µM [cytotoxic, single point]",
CC(=O)NC12CC3CC(C1)CC(C(=O)Nc1ccc(C)c(S(=O)(=O)N4CCCCCC4)c1)(C3)C2,"inconclusive: 20.6 µM [cytotoxic, partial curve]",
CC(=O)N1C[C@@H](CO)[C@@H](N(C)C(=O)C2CCCCC2)C[C@H]1c1ccccc1,,inactive: -0.578%
COC(C/C=C/C(=O)[C@H](C)OCc1ccccc1)OC,"inconclusive: 29.1 µM [cytotoxic, single point]",
COc1cccc(-c2ccc(NC(=O)C3CCCN(CCCn4nc(C)cc4C)C3)cc2)c1 (stereo unspecified),"inconclusive: 32.6 µM [cytotoxic, single point]",
O=C(NCc1cccc(C(F)(F)F)c1)C1C(=O)Nc2ccccc2C(=O)N1Cc1ccccc1 (stereo unspecified),"inconclusive: 29.1 µM [cytotoxic, single point]",
COc1cc(OC)c2c(C)cc(=O)oc2c1,"inconclusive: 29.1 µM [rising, partial curve, poor fit]",
COc1cccc(NC(=O)CNC(=O)c2ccc(OC)c(OC)c2)c1,,inactive: -0.525%
Cc1ccc(-c2nn(-c3ccccc3)cc2C(=O)N2CCOCC2)cc1C,"inconclusive: 23.1 µM [rising, single point]",
COc1cccc(/C=N/NC(=O)c2[nH]nc3c2CCc2ccccc2-3)c1,active: 10.3 µM,

# Pulled by compound from the list above (2):
Structure (SMILES),Potency,"activity change, negative = cytotoxic"
CC(=O)N1C[C@@H](CO)[C@@H](N(C)C(=O)C2CCCCC2)C[C@H]1c1ccccc1,,inactive: -0.578%
CC(C)Cc1cc(CN2CCC(CO)(Cc3cccc(C(F)(F)F)c3)CC2)[nH]n1,"inconclusive: 32.6 µM [cytotoxic, single point]",

# Single records, as listed above:
# Clc1ccc(-c2cn(-c3nc4ccccc4s3)nn2)cc1 reads activity change, negative = cytotoxic: inactive: -9.82%
# COC(C/C=C/C(=O)[C@H](C)OCc1ccccc1)OC reads Potency: inconclusive: 29.1 µM [cytotoxic, single point]
